From article PMC8249419 come the findings set out here.

Amino acid sequences for entries named in this document (tags omitted). A change or cut given only in a name is not applied to a line headed by its entry.
UniProt Q96D31: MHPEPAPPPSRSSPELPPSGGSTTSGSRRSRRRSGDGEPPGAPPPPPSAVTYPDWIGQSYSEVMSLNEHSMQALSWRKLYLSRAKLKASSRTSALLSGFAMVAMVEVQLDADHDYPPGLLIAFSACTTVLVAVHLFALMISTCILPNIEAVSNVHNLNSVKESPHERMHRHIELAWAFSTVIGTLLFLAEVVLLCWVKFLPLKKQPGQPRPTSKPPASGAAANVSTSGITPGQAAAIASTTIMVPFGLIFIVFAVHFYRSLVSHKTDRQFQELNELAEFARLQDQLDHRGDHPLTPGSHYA

These are yes or no findings as the source states them, for the method shown. In cells and extracts the contact can be indirect. Some binding calls cover weakened binding; strength is not graded here.

For assay [1], the target named is calcium release-activated calcium channel protein 1 (Orai1) (human) (UniProt Q96D31). Kind of assay: FRET or BRET; acceptor-photobleaching FRET microscopy in cells co-transfected with Orai1-CFP and Orai1-YFP, after the femtoSOC laser illumination; Orai1-YFP bleached by intense 488-nm laser scanning for 3 s, CFP fluorescence read. For orientation: BRET reads energy transfer from a luciferase to a nearby fluorophore.

Assay [2] shares this target. Kind of assay: condition: only without the femtoSOC laser illumination; FRET or BRET; acceptor-photobleaching FRET microscopy in cells co-transfected with Orai1-CFP and Orai1-YFP, without the femtoSOC laser illumination.

Take “calcium release-activated calcium channel protein 1 (Orai1) (from UniProt Q96D31-1 1-301)”: the binding entry in assay [1] is given as “binds”; in assay [2], “no binding”.
